No constants are given. Whether binding was seen depends on the method and setting. In cells and extracts the contact can be indirect. A yes stands for co-enrichment or nearness to the bait. Other partners may have been found.

Sequences of proteins named here, by UniProt entry; tags and fusion partners are left off. A change or cut given only in a name is not applied to a line headed by its entry. A line that says so, or that is headed by a name, gives the form on record, which may keep a tag or linker. Residues count along the entry.
UniProt P22363: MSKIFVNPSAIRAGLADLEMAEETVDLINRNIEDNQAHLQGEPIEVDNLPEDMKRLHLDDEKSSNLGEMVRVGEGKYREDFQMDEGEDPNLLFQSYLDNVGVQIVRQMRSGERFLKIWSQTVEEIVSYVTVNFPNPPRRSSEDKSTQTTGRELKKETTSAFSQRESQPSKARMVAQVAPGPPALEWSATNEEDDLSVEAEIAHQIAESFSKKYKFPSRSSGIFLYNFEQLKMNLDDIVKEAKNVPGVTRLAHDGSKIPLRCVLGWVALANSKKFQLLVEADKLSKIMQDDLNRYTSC
GFP-P3 (rabies virus CVS-11 phosphoprotein, truncated isoform P3, residues 53-297, fused to GFP): residues 53-297 of P22363
UniProt O14980: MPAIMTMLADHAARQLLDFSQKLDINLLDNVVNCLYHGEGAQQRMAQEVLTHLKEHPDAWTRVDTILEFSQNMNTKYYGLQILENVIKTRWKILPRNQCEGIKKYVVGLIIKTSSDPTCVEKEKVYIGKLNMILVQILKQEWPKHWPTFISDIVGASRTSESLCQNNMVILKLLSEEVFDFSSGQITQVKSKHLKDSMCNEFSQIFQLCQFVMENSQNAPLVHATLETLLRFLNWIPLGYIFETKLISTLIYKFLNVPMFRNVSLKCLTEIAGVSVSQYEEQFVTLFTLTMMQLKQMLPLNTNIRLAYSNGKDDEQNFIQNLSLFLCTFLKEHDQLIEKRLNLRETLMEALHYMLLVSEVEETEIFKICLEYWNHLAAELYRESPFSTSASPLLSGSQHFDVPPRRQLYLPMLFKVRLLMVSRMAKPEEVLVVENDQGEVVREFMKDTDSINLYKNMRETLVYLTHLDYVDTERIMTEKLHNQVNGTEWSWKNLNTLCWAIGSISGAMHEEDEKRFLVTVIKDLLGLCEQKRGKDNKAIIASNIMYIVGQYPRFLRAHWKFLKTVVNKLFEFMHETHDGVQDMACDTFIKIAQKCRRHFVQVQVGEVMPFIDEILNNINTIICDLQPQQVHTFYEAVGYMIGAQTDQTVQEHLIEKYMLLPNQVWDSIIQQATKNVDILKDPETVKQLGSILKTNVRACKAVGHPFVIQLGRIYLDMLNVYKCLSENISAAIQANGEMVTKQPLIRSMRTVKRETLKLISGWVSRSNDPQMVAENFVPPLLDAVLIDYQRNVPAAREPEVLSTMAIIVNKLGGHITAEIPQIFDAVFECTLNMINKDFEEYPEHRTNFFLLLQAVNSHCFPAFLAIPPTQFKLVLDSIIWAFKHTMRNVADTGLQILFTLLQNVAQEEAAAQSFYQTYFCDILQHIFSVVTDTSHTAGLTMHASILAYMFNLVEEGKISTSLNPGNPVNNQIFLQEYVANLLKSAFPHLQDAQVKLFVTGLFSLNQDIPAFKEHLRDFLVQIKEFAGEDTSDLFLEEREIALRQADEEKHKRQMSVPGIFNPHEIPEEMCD
UniProt Q9NR30: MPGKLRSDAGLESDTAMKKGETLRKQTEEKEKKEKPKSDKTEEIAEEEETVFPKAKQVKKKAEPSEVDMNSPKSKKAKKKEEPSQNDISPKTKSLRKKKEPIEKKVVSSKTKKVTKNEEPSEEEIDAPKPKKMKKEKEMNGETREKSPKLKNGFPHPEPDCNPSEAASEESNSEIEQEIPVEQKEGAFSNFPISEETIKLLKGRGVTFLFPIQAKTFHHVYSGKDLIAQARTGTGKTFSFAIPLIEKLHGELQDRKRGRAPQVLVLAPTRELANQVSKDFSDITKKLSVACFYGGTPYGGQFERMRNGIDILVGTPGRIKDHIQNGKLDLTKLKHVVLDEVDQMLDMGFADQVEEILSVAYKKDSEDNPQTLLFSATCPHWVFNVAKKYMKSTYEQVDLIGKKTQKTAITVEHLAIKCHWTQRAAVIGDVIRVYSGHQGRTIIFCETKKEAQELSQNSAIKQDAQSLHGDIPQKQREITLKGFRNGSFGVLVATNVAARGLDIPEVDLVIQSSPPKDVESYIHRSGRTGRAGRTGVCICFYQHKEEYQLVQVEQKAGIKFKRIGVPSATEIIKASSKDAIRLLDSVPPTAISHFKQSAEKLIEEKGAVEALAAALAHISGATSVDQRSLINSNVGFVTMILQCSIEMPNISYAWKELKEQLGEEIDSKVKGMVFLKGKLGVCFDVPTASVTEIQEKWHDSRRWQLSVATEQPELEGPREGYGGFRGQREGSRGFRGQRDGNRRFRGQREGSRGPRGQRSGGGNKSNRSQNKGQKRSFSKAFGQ
UniProt P06748: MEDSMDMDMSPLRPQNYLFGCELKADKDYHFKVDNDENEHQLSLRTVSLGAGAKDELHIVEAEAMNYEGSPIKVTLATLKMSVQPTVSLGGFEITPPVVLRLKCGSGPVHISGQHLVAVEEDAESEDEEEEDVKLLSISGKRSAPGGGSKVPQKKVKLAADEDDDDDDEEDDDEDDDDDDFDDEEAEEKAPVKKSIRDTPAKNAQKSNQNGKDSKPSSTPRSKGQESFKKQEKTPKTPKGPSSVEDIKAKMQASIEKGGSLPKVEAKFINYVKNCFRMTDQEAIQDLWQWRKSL
UniProt Q7Z2W4: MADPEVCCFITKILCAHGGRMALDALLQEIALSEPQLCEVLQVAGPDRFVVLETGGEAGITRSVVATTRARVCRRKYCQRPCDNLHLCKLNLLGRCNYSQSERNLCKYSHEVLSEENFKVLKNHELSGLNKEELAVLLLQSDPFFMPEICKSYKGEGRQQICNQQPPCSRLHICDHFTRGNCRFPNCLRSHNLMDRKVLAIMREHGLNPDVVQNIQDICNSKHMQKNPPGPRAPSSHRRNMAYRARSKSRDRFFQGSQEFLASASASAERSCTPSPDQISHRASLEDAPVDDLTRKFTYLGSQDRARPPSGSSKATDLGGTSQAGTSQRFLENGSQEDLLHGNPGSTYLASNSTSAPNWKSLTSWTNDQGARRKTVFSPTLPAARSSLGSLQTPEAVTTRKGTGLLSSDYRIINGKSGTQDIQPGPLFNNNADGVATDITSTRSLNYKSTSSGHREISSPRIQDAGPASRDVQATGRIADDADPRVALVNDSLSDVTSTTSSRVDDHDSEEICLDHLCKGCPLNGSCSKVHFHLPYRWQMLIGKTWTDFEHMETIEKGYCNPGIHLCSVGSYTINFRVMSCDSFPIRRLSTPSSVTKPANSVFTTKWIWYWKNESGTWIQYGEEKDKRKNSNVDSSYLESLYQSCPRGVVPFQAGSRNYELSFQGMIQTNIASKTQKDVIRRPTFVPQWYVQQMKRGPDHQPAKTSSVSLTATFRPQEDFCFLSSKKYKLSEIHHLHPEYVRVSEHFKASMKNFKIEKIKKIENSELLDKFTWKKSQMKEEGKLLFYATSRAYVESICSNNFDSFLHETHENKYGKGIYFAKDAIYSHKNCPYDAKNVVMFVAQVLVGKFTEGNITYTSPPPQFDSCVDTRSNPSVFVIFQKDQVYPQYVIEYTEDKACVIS
UniProt Q14978: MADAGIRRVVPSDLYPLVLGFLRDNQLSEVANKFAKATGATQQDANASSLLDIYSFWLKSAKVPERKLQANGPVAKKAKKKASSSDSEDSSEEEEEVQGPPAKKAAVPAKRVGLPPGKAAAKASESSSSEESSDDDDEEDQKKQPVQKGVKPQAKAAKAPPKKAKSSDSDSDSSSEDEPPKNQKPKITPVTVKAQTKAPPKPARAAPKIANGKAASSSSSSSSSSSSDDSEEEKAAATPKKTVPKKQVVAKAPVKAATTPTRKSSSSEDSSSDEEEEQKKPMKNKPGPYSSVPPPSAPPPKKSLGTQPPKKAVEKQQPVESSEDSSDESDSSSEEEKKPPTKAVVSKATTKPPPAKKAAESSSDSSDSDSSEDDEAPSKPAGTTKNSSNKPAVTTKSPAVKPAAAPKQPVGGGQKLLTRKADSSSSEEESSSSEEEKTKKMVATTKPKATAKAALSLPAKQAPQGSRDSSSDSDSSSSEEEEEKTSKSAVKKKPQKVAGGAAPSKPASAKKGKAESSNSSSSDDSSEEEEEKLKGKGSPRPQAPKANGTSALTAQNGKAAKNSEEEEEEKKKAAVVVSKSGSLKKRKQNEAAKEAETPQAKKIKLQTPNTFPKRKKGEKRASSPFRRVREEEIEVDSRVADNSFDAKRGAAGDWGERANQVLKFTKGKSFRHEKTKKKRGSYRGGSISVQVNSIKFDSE
UniProt Q13283: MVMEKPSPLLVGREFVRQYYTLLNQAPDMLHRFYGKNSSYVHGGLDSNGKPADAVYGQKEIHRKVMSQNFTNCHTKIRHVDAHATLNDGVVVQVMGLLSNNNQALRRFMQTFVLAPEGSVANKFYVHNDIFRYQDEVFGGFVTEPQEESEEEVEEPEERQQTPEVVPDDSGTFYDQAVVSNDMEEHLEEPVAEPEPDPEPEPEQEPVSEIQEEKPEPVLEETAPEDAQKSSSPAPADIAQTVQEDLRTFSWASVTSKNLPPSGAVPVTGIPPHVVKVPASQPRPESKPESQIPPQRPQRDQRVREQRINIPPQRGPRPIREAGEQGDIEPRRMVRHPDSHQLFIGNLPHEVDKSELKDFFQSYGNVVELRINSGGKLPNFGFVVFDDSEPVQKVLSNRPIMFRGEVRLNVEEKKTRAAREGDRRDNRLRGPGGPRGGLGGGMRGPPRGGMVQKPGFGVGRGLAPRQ
UniProt P11940: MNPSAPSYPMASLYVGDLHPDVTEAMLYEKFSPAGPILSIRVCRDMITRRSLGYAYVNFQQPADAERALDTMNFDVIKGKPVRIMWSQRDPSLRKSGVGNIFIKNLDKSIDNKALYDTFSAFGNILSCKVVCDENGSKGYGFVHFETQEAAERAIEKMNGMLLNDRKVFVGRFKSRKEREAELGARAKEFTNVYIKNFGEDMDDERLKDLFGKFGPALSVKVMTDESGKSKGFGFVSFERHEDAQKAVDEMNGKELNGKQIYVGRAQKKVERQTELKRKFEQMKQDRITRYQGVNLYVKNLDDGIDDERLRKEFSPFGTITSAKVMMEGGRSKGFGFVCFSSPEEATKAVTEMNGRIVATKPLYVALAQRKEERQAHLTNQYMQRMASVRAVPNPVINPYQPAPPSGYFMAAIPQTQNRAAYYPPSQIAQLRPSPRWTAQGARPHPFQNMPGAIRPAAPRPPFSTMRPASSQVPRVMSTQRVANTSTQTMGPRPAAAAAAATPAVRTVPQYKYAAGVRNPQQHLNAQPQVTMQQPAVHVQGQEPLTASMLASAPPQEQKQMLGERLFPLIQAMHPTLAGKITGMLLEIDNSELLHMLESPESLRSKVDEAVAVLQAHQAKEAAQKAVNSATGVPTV
UniProt Q9UN86: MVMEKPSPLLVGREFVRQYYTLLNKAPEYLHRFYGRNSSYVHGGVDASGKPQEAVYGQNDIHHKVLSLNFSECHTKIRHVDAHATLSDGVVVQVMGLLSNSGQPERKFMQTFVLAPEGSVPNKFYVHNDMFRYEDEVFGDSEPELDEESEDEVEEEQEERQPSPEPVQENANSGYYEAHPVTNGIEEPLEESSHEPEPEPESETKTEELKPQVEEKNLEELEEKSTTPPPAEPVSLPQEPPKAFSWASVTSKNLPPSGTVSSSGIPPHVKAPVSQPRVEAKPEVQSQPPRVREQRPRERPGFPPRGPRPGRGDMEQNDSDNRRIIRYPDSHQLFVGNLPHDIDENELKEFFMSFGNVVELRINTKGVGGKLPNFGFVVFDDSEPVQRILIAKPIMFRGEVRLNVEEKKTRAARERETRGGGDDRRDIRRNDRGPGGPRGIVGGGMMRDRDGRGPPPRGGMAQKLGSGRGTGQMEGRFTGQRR

Assay [1] addresses GFP-P1 (rabies virus CVS-11 phosphoprotein, full-length isoform P1, fused to GFP) (rabies virus, strain CVS-11) (UniProt P22363). The experiment in a line: affinity purification with mass spectrometry.
Assay [2] addresses GFP-P3 (rabies virus CVS-11 phosphoprotein, truncated isoform P3, residues 53-297, fused to GFP) (rabies virus, strain CVS-11) (UniProt P22363). The experiment in a line: affinity purification with mass spectrometry.

On to “nuclear export factor XPO1/CRM1 (from UniProt O14980 1-1071)”, for which the binding result in assay [1] is “binds”.
As for “RNA helicase DDX21 (from UniProt Q9NR30 1-783)”, in assay [2], the binding result is “binds”.
For “nucleophosmin (NPM1) (from UniProt P06748 1-294)”, the binding entry in assay [2] and in assay [1] was “binds” each time.
Consider ZC3HAV1 (from UniProt Q7Z2W4 1-902), for which the binding result in assay [2] was “binds”.
NOLC1 (from UniProt Q14978 1-699): in assay [2], the binding result is “binds”.
As to G3BP1 (from UniProt Q13283 1-466), the binding entry in assay [2] and in assay [1] was “binds” in each case.
Turning to PABPC1 (from UniProt P11940 1-636), in assay [2], the binding result is on record as “binds”.
Consider G3BP2 (from UniProt Q9UN86 1-482), for which the binding result in assay [2] was “binds”.

(Values after article PMC12589655.)
